Reference: publication PMC11574364
For at least one entry, the source does not settle the construct or the ends of the probe. For some of these results: Protein sequences can lack the tags named with them.

The chains behind the UniProt entries cited, without tags or fusion partners. Where a name states a change or a piece, a line headed by the entry shows the natural chain unless it says otherwise.
UniProt Q9NY87: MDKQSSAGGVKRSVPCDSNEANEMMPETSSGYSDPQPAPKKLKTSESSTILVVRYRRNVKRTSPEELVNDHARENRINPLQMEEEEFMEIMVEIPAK
UniProt Q8WTW4: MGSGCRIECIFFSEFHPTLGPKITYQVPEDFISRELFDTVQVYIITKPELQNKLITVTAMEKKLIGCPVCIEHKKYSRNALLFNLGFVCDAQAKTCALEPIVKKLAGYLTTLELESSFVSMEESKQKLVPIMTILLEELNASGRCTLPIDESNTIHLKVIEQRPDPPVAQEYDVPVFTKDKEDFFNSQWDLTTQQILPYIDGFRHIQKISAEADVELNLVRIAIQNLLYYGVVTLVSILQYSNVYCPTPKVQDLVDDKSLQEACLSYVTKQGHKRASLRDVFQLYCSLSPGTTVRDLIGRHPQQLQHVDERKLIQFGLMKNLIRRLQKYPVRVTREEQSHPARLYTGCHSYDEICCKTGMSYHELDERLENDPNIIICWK

Columns and labels:
Assay in all cases: human ORF protein microarray
[1] = target: T1, JAZF1 (Homo sapiens) (UniProt Q86VZ6); settings: 5' phosphate; Domain array: 20 mM Tris-HCl pH 7.4, 200 mM KCl, 0.2 mM EDTA, 0.05% NP40, 2 ug/ul heparin, overnight 4 C. ORF array: PBS pH 7.0 with RNase inhibitor, 100 ng RNA, 1 h.; recombinant protein; protein details: N-terminal GST-6xHis; label: internal DY647 at G18; letters put together from the description
T1 sequence (looked up, limits assumed): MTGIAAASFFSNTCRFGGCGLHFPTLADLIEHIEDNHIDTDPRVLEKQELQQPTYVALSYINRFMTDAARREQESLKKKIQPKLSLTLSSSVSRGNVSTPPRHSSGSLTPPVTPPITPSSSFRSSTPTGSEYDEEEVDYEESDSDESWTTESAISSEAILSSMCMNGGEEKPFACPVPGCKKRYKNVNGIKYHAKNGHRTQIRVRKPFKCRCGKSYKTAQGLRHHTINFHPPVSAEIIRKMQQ

[2] = target: SPANXC (Homo sapiens) (UniProt Q9NY87); settings: 5' phosphate; Domain array: 20 mM Tris-HCl pH 7.4, 200 mM KCl, 0.2 mM EDTA, 0.05% NP40, 2 ug/ul heparin, overnight 4 C. ORF array: PBS pH 7.0 with RNase inhibitor, 100 ng RNA, 1 h.; recombinant protein; protein details: N-terminal GST-6xHis; label: internal DY647 at G18; letters put together from the description
[3] = target: T2, SERPINA10 (Homo sapiens) (UniProt Q9UK55); settings: 5' phosphate; Domain array: 20 mM Tris-HCl pH 7.4, 200 mM KCl, 0.2 mM EDTA, 0.05% NP40, 2 ug/ul heparin, overnight 4 C. ORF array: PBS pH 7.0 with RNase inhibitor, 100 ng RNA, 1 h.; recombinant protein; protein details: N-terminal GST-6xHis; label: internal DY647 at G18; letters put together from the description
T2 sequence (looked up, limits assumed): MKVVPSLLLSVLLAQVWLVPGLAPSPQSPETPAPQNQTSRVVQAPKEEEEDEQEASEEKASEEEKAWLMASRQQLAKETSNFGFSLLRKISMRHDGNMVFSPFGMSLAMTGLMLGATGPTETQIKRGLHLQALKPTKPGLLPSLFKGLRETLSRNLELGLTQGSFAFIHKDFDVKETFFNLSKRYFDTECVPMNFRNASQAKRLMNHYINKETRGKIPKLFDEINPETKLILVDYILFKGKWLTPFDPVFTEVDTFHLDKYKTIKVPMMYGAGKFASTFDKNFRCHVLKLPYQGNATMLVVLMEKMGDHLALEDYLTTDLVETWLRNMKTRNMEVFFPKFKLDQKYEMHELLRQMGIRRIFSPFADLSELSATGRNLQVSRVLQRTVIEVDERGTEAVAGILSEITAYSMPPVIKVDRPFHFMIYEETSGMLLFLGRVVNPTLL

[4] = target: TUSC4 (Homo sapiens) (UniProt Q8WTW4); settings: 5' phosphate; Domain array: 20 mM Tris-HCl pH 7.4, 200 mM KCl, 0.2 mM EDTA, 0.05% NP40, 2 ug/ul heparin, overnight 4 C. ORF array: PBS pH 7.0 with RNase inhibitor, 100 ng RNA, 1 h.; recombinant protein; protein details: N-terminal GST-6xHis; label: internal DY647 at G18; letters put together from the description
[5] = target: T3, YME1L1 (Homo sapiens) (UniProt Q96TA2); settings: 5' phosphate; Domain array: 20 mM Tris-HCl pH 7.4, 200 mM KCl, 0.2 mM EDTA, 0.05% NP40, 2 ug/ul heparin, overnight 4 C. ORF array: PBS pH 7.0 with RNase inhibitor, 100 ng RNA, 1 h.; recombinant protein; protein details: N-terminal GST-6xHis; label: internal DY647 at G18; letters put together from the description
T3 sequence (looked up, limits assumed): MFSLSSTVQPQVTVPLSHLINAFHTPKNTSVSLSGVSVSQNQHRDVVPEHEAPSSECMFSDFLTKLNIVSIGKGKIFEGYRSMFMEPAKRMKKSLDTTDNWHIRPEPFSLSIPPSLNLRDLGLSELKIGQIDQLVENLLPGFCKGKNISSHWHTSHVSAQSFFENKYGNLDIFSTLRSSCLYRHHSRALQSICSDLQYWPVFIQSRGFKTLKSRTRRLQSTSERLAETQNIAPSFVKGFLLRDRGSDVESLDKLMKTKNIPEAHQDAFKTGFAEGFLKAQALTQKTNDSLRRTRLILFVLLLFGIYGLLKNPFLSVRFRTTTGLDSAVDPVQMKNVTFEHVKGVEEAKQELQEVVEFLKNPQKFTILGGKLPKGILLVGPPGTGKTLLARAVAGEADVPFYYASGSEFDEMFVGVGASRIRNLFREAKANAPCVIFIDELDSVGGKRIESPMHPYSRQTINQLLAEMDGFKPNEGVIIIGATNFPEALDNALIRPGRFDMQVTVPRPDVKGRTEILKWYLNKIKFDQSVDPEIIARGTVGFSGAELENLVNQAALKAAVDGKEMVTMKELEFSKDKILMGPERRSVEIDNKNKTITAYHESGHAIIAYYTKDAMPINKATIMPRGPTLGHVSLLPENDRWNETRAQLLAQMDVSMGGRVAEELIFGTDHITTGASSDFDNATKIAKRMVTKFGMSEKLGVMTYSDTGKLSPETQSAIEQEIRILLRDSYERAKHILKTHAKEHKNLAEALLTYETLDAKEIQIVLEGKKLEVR

[6] = target: T4, SOCS5 (Homo sapiens) (UniProt O75159); settings: 5' phosphate; Domain array: 20 mM Tris-HCl pH 7.4, 200 mM KCl, 0.2 mM EDTA, 0.05% NP40, 2 ug/ul heparin, overnight 4 C. ORF array: PBS pH 7.0 with RNase inhibitor, 100 ng RNA, 1 h.; recombinant protein; protein details: N-terminal GST-6xHis; label: internal DY647 at G18; letters put together from the description
T4 sequence (looked up, limits assumed): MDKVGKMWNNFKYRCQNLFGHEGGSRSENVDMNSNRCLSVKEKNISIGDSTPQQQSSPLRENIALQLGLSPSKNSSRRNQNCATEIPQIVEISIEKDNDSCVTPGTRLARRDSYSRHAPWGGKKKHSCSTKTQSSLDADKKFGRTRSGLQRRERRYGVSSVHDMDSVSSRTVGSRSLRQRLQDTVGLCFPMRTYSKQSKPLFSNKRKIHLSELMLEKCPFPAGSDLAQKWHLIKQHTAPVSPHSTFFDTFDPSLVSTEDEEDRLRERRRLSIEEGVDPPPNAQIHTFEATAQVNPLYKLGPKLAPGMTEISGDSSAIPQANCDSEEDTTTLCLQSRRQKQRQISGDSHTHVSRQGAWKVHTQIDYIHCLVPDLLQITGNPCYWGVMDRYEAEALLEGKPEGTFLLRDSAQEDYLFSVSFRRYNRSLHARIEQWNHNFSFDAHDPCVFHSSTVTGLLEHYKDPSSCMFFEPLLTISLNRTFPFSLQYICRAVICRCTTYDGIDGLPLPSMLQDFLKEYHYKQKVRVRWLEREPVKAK

[7] = target: T5, OR5D14 (Homo sapiens) (UniProt Q8NGL3); settings: 5' phosphate; amino-C6 U at position 18; Domain array: 20 mM Tris-HCl pH 7.4, 200 mM KCl, 0.2 mM EDTA, 0.05% NP40, 2 ug/ul heparin, overnight 4 C. ORF array: PBS pH 7.0 with RNase inhibitor, 100 ng RNA, 1 h.; recombinant protein; protein details: N-terminal GST-6xHis; label: internal Cy5 or DY647
T5 sequence (looked up, limits assumed): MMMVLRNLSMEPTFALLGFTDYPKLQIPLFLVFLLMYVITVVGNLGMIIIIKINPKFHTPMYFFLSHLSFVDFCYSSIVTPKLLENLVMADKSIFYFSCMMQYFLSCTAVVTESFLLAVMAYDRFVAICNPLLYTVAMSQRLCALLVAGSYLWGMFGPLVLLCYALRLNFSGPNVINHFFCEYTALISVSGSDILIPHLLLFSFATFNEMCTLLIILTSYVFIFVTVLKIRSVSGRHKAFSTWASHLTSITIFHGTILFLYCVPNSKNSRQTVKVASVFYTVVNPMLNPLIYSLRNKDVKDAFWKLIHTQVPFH

“CAGUGCAAUGAUGAAAGGGCAU [miR-130b (internal labeling)]”: binds [1]; binds [2].

“UAGCUUAUCAGACUGAUGUUGA [miR-21 (internal labeling)]”: binds [3]; binds [4]; binds [5]. “UAGCUUAUCAGACUGAUGUUGA [miR-21 (internal labeling)]”: binds [6].

“UGAGGUAGUAGGUUGUGUGGUU [let-7b (internal labeling)]”: binds [7].
